This experiment is described as follows: qHTS Assay to Find Inhibitors of Chronic Active B-Cell Receptor Signaling. The settings on record: ABC-DLBCL IkBa-CBG/CBR reporter, luminescence ratio (green luciferase fused to IkBa over red control in TMD8 lymphoma cells), 4 h. The essentials: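 TMD8 human ABC-DLBCL cells with doxycycline-inducible IκBα–green luciferase fusion and unfused red luciferase, in 0.5% FBS medium; compounds up to 46 uM, 4 h at 37C. Green/red luminescence ratio, filter-overlap corrected, fitted to concentration-response curves.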
A general note: qHTS replaces the single test concentration by a dilution series.

[1] abbreviates: measured here: CBR red luminescence, cell number.
The mark [2] stands for this setting: measured here: IkBa-CBG green luminescence.

This is one part of the list. Further columns of the screen follow, without active or inactive calls. The list favours compounds with an active or inconclusive main result. The note in brackets gives the kind of curve behind each potency; many fits are weak.

The text below walks through data of PubChem BioAssay AID493014 (National Center for Advancing Translational Sciences (NCATS), 2011).

In the case of `CSc1nc2c(ccc3ccccc32)o1`, the half-maximal activity concentration (AC50) under setting [1] was 20.6 µM [rising, single point].
In the case of `COC(=O)[C@H]1[C@H]2C[C@@H]3c4[nH]c5cc(OC)ccc5c4CCN3C[C@H]2C[C@@H](OC(=O)c2cc(OC)c(OC)c(OC)c2)[C@@H]1OC`, the AC50 under setting [1] is 29.1 µM [falling, single point].
Take `Cc1cc(C2C(C#N)=C(N)OC3=C2C(=O)CCC3)c(C)s1` (stereo unspecified): under setting [1], the AC50 was 0.164 µM [falling, full curve, poor fit].
Same read-out and setting: for `O=C(CC1SC(=O)NC1=O)Nc1ccc(Cl)cc1` (stereo unspecified) the value was 14.1 µM [falling, partial curve, poor fit]; for `O=C(COc1ccccc1C(=O)Nc1ccccc1)NCCc1ccccc1`, 35.5 µM [rising, single point]; for `O=C(N/N=C/c1oc(O)c2ccccc12)c1ccccc1`, 7.08 µM [falling, full curve].
`COc1cc(SC)ccc1C(=O)Nc1ccccn1`: the concentration at half-maximal activity (AC50) under setting [1] is 7.94 µM [falling, partial curve].
On to `Cc1ccc(NC(=O)n2ncc3c(C)cccc32)c(C)c1`, for which the half-maximal activity concentration (AC50) under setting [1] was 0.251 µM [rising, full curve, poor fit].
With `Cc1cc(C)nc(-n2ncc3c2CC(c2ccccc2C)CC3=O)n1` (stereo unspecified), under setting [1], the concentration at half-maximal activity (AC50) is 3.26 µM [rising, single point].
The same measure, in the same setting: under `Cc1nn(Cc2ccc(C(=O)NC3CCCCC3)o2)c(C)c1Br` stands 29.1 µM [falling, single point]; under `Cc1cc(/C=N/NC(=O)C(O)(c2ccccc2)c2ccccc2)c(C)n1-c1ccc(C(=O)O)cc1`, 20.6 µM [falling, partial curve, poor fit].
In the case of `COc1cc(C2Nc3ccc4ncccc4c3C3=C2C(=O)CCC3)ccc1O` (stereo unspecified), the AC50 by setting is: under setting [1], 35.5 µM [rising, single point]; under setting [2], 22.4 µM [falling, single point].
`COC(=O)C(CC(=O)c1ccc(Br)cc1)n1nc(C)cc1C` (stereo unspecified): the AC50 under setting [1] was 22.4 µM [falling, single point].
For the molecule `Cc1ccc(NC(=O)N2CCCC2c2cccs2)cc1` (stereo unspecified), the concentration at half-maximal activity (AC50) under setting [1] is 35.5 µM [rising, single point].
Regarding `CC(=O)Nc1ccc(NC(=O)C(C)OC(=O)c2cccs2)cc1` (stereo unspecified), the AC50 under setting [1] was 23.1 µM [rising, single point].
On to `CSc1ncccc1C(=O)OCC(=O)Nc1cc(C(F)(F)F)ccc1N1CCOCC1`, for which the half-maximal activity concentration (AC50) under setting [1] is 1 µM [rising, full curve, poor fit].
The same measure, in the same setting: under `O=C(CCCc1ccccc1)NCCc1ccccc1` stands 1 µM [rising, partial curve, poor fit]; under `NC(=O)CC(NC(=O)Cc1ccc(Br)cc1)c1ccc(NCCOc2ccccc2)c([N+](=O)[O-])c1` (stereo unspecified), 5.62 µM [rising, full curve].
Same read-out and setting: for `O=C(NCCCN1CCCC1=O)Nc1ccc([N+](=O)[O-])cc1` the value was 7.94 µM [rising, partial curve, poor fit]; for `Cc1cc2ncn(/N=C/c3cc(Br)ccc3O)c2cc1C`, 5.62 µM [falling, single point].
Still for that read-out and setting: for `COC(=O)Cc1c[nH]c2cccc(OCC(O)CN(Cc3ccc([N+](=O)[O-])cc3)C(C)(C)C)c12` (stereo unspecified) the value was 2.24 µM [falling, partial curve, poor fit].
Regarding `NC(=S)N/N=C/c1coc2ccc(Br)cc2c1=O`, the AC50 by setting is: under setting [1], 20 µM [rising, partial curve, poor fit]; under setting [2], 2.51 µM [rising, full curve, poor fit].
In the case of `N#C/C(=C(/O)c1ccc(-c2cccc([N+](=O)[O-])c2)o1)c1nc2ccccc2s1`, under setting [1], the AC50 is 2.24 µM [falling, partial curve, poor fit].
In the case of `COc1cccc(C(=O)Nc2ccc3nc4n(c(=O)c3c2)CCCC4)c1`, under setting [1], the AC50 was 7.94 µM [falling, partial curve].
On to `CC(=O)O[C@H]1CC(C)(C)C(=C=C/C(C)=C/C=C/C(C)=C/C=C/C=C(C)/C=C/C=C(\C)C(=O)C[C@@]23O[C@]2(C)C[C@@H](O)CC3(C)C)[C@](C)(O)C1`, for which, under setting [1], the AC50 was 0.708 µM [rising, full curve, poor fit].
For the molecule `CCC(=O)c1ccc(OCc2ccccc2)c(OC)c1`, the AC50 under setting [2] was 29.1 µM [falling, partial curve, poor fit].
For the molecule `Cn1c(CCN2CCCC2)nc2cc(NS(=O)(=O)c3ccccc3)ccc21`, the half-maximal activity concentration (AC50) under setting [1] was 15.8 µM [falling, single point].
Consider `CCCCN(C(=O)c1ccc2c(c1)NC(=O)CS2)c1ccccc1`, for which the AC50 under setting [1] is 11.6 µM [falling, partial curve].
For the molecule `CCc1ccc(C(=O)c2oc3nc(C)cc(C)c3c2N)cc1`, the AC50 under setting [1] is 0.562 µM [rising, partial curve, poor fit].
On the same count and under the same terms, under `Cc1cccc(Nc2c(-c3ccc(N4CCOCC4)cc3)nc3ncccn23)c1` stands 29.1 µM [rising, single point]; under `O=C(CSc1nc(=O)n(Cc2ccccn2)c2c1CCC2)Nc1ccc(F)cc1F`, 18.4 µM [falling, single point].
Regarding `COc1cc(C)ccc1OCC(=O)Nc1ccccc1N1CCOCC1`, under setting [1], the half-maximal activity concentration (AC50) was 4.11 µM [rising, partial curve].
For `Cc1cc(-c2cccs2)n[nH]1`, under setting [1], the AC50 was 25.9 µM [rising, single point].
In the case of `CCN(CC)S(=O)(=O)c1cccc(-n2c(O)c(C=Nc3ccccc3C(=O)O)c3ccccc3c2=O)c1`, the half-maximal activity concentration (AC50) under setting [1] is 0.316 µM [falling, full curve, poor fit].
The same measure, in the same setting: for `O=C(O)c1cccc(N/N=C/c2ccc(-c3ccccc3)cc2)c1` the value was 8.91 µM [falling, partial curve, poor fit]; for `CC(C)CCNC(=O)COc1cccc2c1OC(C)(C)C2`, 35.5 µM [rising, single point]; for `O=C(NNc1nc2c(F)cccc2s1)c1cc(=O)c2ccccc2o1`, 4.47 µM [falling, partial curve].
For `Cc1ccc(NC(=O)N2CCc3ccccc32)cc1`, under setting [1], the half-maximal activity concentration (AC50) was 9.2 µM [falling, partial curve].
`CCOC(=O)c1cc2sc(C)cc2n1CC(=O)NCCc1ccccc1`: the concentration at half-maximal activity (AC50) under setting [1] is 0.164 µM [rising, full curve, poor fit].
In the case of `COCCNC(=S)N/N=C(\C)c1cccc(OC)c1`, the concentration at half-maximal activity (AC50) is, setting by setting: under setting [1], 35.5 µM [falling, single point]; under setting [2], 35.5 µM [falling, single point].
As to `CCC1(C)Cc2c(sc3nnn(CC(=O)Nc4cccc5ccccc45)c(=O)c23)CO1` (stereo unspecified), the AC50 under setting [1] is 28.2 µM [falling, single point].
Take `CC(=O)NS(=O)(=O)c1cccnc1Nc1cccc(Cl)c1`: under setting [1], the AC50 was 29.1 µM [rising, single point].
On to `COC(=O)c1ccc(N/N=C/c2cc([N+](=O)[O-])cc(OC)c2O)cc1`, for which the AC50 under setting [1] was 11.2 µM [falling, partial curve].
Consider `CCOC(=O)C1CCN(C(=O)C(CCSC)NC(=O)c2ccccc2OC)CC1` (stereo unspecified), for which the concentration at half-maximal activity (AC50) under setting [1] is 3.26 µM [rising, full curve, poor fit].
For the molecule `Oc1ccc(Br)cc1C1Nc2ccccc2S1` (stereo unspecified), the half-maximal activity concentration (AC50) under setting [1] was 2.24 µM [rising, full curve, poor fit].
For `CCN1CCN(CC(=O)Nc2ccc(OC(F)(F)F)cc2)CC1`, the AC50 under setting [1] was 0.891 µM [rising, full curve, poor fit].
For `c1ccc(CSc2snnc2-c2ccccc2)cc1`, under setting [1], the AC50 was 1.16 µM [rising, full curve, poor fit].
`COc1cccc2cc3c(=O)n(-c4ccccc4)nc-3oc12`: the concentration at half-maximal activity (AC50) under setting [1] is 0.291 µM [falling, full curve].
In the case of `COC(=O)c1sccc1NC(=O)Cc1ccc(OC)c(OC)c1`, the AC50 under setting [1] was 7.31 µM [falling, partial curve].
Take `CCOC(=O)c1c(NCc2ccc3c(c2)OCO3)c2ccccc2[nH]c1=O`: under setting [1], the half-maximal activity concentration (AC50) is 11.6 µM [falling, single point].
`Cc1nc(C)c(C(=O)Nc2nc3c(C)cccc3s2)o1`: the AC50 under setting [1] is 12.6 µM [falling, partial curve, poor fit].
As for `CCC(/C=N/NC(=O)c1ccccc1F)CC`, the half-maximal activity concentration (AC50) under setting [1] is 15.8 µM [falling, partial curve, poor fit].
Take `COc1ccccc1C(=O)NCCC(=O)NCC(c1ccc(F)cc1)N1CCOCC1` (stereo unspecified): under setting [1], the AC50 was 25.9 µM [falling, single point].
For `Cc1ccc(C2(C)NC(=O)N(CC(=O)Nc3ccc(-c4nc5ccc(C)cc5s4)cc3)C2=O)cc1` (stereo unspecified), under setting [1], the AC50 is 3.98 µM [rising, partial curve, poor fit].
`CCOc1ccc(N(CC(=O)Nc2ccccc2OCC)S(=O)(=O)c2c(C)noc2C)cc1`: the AC50 runs as follows: under setting [1], 4.47 µM [rising, full curve]; under setting [2], 6.31 µM [falling, full curve].
With `COc1cccc2c1OC1(C)CC2NC(=O)N1c1cccc(C(=O)Nc2ccc3c(c2)OCCO3)c1` (stereo unspecified), the AC50 under setting [1] was 5.8 µM [falling, partial curve, poor fit].
On to `Cc1ccc(Cl)cc1NC(=O)c1cnn2c1NC(c1ccco1)CC2C(F)(F)F` (stereo unspecified), for which the AC50 under setting [1] is 1.3 µM [falling, full curve, poor fit].
The same measure, in the same setting: for `CCNc1nc(SC(C)C(=O)OC)nc(N2CCOCC2)n1` (stereo unspecified) the value was 35.5 µM [rising, single point]; for `O=C(CN(Cc1ccc(Br)cc1)S(=O)(=O)c1ccccc1)NCc1cccnc1`, 20 µM [falling, partial curve, poor fit]; for `CCc1nc(SCC(=O)N2CC(=O)Nc3ccccc32)c2c(C)c(C)sc2n1`, 14.1 µM [rising, single point].
The same measure, in the same setting: for `O=C(O)c1ccc(/C=C2\SC(=S)N(Nc3ccccc3)C2=O)cc1` the value was 11.2 µM [falling, partial curve, poor fit]; for `COc1cc(/C=C(\CC(=O)O)c2nc3ccccc3s2)cc(OC)c1O`, 35.5 µM [rising, single point].

As usually defined, the AC50 is the concentration at which the activity in the assay is half-maximal.
